Drawing on paper PMC12199433, this text covers binding for two substances.

Chains of the proteins cited; added tags and fusions are not shown.
UniProt Q04207: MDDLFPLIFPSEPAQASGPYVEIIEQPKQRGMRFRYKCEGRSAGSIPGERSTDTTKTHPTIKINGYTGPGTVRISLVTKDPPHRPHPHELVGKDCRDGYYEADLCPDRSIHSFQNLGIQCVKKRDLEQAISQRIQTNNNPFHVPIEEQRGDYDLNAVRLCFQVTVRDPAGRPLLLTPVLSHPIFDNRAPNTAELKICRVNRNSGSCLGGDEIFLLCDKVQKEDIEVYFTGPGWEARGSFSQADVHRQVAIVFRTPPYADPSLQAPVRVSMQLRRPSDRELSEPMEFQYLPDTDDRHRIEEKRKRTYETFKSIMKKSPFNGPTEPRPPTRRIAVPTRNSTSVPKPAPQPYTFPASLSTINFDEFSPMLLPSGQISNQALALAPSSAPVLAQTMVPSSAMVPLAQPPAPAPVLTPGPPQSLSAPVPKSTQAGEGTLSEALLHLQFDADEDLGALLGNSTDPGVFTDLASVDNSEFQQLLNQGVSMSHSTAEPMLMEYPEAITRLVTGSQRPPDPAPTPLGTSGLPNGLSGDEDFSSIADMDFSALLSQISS

The experiment deals with T1, SIRT2 (mouse (endogenous in BV-2)) (UniProt Q8VDQ8).
T1 sequence: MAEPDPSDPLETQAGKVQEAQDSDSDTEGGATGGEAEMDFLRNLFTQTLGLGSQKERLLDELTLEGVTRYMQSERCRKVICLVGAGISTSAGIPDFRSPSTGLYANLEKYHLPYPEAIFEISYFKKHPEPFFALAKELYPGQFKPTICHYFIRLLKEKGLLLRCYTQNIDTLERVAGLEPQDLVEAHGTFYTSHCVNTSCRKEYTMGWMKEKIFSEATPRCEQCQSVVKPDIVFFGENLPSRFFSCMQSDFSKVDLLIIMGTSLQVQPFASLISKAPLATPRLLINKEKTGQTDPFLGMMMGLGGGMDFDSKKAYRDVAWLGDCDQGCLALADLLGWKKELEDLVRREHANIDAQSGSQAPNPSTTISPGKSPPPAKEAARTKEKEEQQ
Put plainly: co-IP; anti-SIRT2 antibody (rabbit IgG as control) and protein A/G magnetic beads on lysates of BV-2 cells; cells treated with S-KET or R-KET (100 µM, 2 h) and then LPS (20 ng/mL, 1 h); lysis buffer 25 mM Tris pH 8.0, 150 mM KCl, 5 mM EDTA, 0.5% NP-40; p65 and Ac-p65 detected by immunoblotting. On the technique in general: Immunoblotting shows a protein as a band on a membrane.

Results are given in words; binding and its absence hold for the method and conditions named. Binding seen in cells or lysates may run through a third protein. Some entries that bind do so weakly or less than the wild type.

“acetylated p65 (from UniProt Q04207 1-549)”: the binding result is “binds”.
In the case of “NF-κB subunit p65 (from UniProt Q04207 1-549)”, the binding entry is “binds”.
